Test results as given in PMC7902631, “An ESCRT-dependent step in fatty acid transfer from lipid droplets to mitochondria through VPS13D−TSG101 interactions” (Nature Communications, 2021).
Results are given in words; binding and its absence hold for the method and conditions named. In cells and extracts the contact can be indirect. Some results given as binding are weak or reduced against the parent protein; the word gives no strength.

By UniProt entry, the sequences of proteins in these tests, tags left out. Where a name states a change or a piece, a line headed by the entry shows the natural chain unless it says otherwise. Chains listed by the source or under a name are the forms on record and can include a tag or linker.
superfolder green fluorescent protein (sfGFP)-tagged VPS13D (transcript variant 2, NM_018156) (Q5THJ4, form named): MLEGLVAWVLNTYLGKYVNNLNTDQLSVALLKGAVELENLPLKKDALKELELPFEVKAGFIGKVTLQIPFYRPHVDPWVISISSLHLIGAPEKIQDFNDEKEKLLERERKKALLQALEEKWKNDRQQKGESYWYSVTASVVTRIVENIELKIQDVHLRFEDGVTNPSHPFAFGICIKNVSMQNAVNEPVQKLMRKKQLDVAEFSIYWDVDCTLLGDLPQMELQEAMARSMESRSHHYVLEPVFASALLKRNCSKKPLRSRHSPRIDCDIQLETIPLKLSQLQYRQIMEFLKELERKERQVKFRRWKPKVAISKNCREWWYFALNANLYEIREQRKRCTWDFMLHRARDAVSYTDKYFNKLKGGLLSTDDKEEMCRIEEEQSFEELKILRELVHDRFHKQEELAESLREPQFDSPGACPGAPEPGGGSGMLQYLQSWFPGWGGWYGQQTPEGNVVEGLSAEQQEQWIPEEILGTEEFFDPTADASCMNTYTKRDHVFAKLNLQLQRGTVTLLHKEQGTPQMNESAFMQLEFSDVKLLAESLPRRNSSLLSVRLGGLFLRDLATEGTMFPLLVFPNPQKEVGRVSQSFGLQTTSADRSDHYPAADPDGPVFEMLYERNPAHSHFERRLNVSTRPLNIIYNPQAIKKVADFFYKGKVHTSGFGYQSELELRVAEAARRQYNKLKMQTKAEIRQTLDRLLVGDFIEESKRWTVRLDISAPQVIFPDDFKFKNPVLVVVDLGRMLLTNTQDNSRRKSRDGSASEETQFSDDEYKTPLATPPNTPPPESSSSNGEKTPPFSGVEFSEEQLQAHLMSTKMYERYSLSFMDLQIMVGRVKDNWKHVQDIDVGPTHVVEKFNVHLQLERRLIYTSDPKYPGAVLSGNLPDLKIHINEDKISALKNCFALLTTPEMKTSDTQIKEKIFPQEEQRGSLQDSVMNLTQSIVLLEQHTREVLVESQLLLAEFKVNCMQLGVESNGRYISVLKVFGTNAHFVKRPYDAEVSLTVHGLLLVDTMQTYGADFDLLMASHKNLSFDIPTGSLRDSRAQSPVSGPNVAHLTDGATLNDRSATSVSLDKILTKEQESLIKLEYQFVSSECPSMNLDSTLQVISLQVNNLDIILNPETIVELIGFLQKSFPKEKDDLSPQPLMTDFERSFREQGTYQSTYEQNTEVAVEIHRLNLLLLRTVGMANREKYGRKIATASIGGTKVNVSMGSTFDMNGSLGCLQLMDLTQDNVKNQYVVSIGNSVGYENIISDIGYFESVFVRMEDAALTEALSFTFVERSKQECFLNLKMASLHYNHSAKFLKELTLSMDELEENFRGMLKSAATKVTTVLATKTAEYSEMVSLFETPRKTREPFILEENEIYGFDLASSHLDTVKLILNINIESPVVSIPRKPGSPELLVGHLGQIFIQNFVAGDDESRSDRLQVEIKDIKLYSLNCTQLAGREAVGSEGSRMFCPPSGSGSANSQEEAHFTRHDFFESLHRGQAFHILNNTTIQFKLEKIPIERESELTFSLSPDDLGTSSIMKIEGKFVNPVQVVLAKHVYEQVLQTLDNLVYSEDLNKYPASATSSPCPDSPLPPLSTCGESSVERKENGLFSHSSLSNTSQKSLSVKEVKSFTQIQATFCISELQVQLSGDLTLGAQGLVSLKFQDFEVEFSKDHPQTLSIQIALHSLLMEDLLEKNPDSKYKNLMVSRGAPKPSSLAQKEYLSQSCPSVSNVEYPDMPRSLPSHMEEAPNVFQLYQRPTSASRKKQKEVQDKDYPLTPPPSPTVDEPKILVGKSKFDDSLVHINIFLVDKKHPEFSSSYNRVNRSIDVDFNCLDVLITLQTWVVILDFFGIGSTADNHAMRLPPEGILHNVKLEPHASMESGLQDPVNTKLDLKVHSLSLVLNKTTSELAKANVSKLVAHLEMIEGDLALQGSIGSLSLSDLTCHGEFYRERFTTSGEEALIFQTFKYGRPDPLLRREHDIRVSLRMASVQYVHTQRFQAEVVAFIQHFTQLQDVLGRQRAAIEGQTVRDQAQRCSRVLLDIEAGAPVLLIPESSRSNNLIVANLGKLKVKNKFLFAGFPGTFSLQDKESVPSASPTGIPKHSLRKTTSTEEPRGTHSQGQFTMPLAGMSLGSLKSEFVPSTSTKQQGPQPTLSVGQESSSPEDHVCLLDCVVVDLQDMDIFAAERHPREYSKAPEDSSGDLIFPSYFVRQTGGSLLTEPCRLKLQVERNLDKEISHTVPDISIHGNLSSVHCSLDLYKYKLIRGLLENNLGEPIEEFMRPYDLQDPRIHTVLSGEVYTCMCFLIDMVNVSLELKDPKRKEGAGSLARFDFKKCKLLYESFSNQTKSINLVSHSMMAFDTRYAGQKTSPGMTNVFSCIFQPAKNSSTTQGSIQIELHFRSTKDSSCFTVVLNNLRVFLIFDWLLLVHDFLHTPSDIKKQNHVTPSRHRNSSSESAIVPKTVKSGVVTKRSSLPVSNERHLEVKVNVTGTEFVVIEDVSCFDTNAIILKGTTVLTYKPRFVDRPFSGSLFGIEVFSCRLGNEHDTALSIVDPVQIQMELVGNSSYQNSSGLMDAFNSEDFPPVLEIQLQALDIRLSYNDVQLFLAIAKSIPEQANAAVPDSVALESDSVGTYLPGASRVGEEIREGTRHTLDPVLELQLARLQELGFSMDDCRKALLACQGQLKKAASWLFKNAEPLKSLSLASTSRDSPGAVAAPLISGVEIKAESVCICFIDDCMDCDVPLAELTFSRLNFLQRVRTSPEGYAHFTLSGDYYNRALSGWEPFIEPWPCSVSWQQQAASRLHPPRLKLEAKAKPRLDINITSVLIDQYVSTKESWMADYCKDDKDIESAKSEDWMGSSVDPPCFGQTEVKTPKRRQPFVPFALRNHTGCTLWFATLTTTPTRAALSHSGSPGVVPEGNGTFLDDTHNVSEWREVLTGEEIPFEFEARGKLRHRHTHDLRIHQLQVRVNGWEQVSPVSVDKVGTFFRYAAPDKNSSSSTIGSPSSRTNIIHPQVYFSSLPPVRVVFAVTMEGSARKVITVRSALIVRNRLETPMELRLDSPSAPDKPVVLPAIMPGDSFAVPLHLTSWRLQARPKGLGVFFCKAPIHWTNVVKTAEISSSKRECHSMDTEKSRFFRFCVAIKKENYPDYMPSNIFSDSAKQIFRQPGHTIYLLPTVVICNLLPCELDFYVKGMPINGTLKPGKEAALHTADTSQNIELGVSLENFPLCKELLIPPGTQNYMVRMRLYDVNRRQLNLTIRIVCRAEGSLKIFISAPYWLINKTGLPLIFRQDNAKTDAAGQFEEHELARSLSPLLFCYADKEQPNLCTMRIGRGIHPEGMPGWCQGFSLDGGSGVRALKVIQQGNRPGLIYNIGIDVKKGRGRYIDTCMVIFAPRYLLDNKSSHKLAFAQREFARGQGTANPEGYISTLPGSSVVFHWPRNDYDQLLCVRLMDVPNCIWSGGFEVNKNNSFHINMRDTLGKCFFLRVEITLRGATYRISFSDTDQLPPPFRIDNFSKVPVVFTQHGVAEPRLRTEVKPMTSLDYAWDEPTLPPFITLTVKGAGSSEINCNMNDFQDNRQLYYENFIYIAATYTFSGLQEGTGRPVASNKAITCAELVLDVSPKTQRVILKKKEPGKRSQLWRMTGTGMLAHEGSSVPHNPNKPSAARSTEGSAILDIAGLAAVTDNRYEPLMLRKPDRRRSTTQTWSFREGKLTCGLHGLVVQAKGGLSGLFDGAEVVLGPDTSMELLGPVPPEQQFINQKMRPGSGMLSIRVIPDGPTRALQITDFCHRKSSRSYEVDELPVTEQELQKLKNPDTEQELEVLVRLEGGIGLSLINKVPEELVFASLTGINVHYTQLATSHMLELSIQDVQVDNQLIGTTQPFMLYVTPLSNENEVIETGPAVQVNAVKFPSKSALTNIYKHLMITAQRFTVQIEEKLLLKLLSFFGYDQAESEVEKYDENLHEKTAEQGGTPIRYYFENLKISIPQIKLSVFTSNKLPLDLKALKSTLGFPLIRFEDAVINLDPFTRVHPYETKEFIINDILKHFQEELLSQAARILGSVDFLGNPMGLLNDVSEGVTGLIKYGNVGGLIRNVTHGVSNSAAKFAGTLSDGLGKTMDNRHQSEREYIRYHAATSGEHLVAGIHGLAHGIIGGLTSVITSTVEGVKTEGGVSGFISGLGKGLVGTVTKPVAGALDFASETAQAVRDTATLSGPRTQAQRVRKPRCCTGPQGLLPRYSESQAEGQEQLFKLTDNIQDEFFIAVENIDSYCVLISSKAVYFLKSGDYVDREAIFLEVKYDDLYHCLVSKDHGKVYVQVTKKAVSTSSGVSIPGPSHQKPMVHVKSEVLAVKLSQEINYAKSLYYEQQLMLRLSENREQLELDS
UniProt Q99816: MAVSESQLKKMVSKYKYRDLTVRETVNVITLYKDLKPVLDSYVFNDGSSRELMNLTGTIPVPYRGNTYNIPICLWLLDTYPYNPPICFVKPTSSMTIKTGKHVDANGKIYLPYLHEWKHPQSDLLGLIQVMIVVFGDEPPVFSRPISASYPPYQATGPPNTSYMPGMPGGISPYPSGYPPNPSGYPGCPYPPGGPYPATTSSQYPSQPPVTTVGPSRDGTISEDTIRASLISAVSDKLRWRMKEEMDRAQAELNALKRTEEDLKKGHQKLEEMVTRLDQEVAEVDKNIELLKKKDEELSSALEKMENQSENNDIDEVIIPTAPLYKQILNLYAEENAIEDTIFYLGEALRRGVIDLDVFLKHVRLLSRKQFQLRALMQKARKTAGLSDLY

Target: superfolder green fluorescent protein (sfGFP)-tagged VPS13D (transcript variant 2, NM_018156) (human) (UniProt Q5THJ4)
Test: co-IP; GFP-Trap agarose beads (ChromoTek) on lysates of HEK293 cells, by the manufacturer's protocol; GFP-tagged protein held, partner detected by western blot (anti-TSG101 or anti-Halo); 5% input

Substance: TSG101 found with VPS13D in the GFP-Trap of Supplementary Fig. 4b (endogenous or Halo-tagged not stated) (from UniProt Q99816 1-390)
- binding: binds
